According to US9180163B2, “Parstatin peptides” (priority 2009, dated 2015):
Not every detail of the peptide structures is certain; ends, links or a residue may be inferred. Ends that are not written are not given here.

Assays:
isolated rat hearts = experiment: isolated rat heart ischemia-reperfusion
Experimental: For in vitro studies, excised hearts were retrogradely perfused through the aorta with a modified Krebs buffer. Coronary flow rate was determined by timed collection of the coronary effluent. A saline-filled latex balloon connected to a pressure transducer was inserted into the left […] (LV), and baseline end-diastolic pressure was set at 5-10 mmHg. Heart rate, LV end-diastolic pressure and LV developed pressures (LVDP) were recorded continuously. The measurements for post-ischemic recovery of LVDP used for comparison were taken at 180 min of reperfusion. After stabilization for 15-20 min, the hearts (n=6/group) were subjected to 30 min of regional ischemia, followed by 180 min of reperfusion. Different concentrations of […] (1-41) were perfused 15 min prior to coronary occlusion until occlusion. Control hearts produced an infarct size of 51±3% of the area at risk (FIG. 19A). […] A picture representation of infarct in control versus […] Similarly, […] (1-41) increased recovery of LVDP in a concentration-dependent manner (FIG. 19B). Again, the optimal concentration was 1 μM which produced a 23% recovery of LVDP (FIG. 19B).

[1] = test system: VEGF-induced retinal leukostasis in C57BL/6J mice; experiment: VEGF-induced retinal leukostasis model; assay type: in vivo, mouse
Experimental: Inflammatory leukocyte accumulation is a common feature of major ocular diseases. […] VEGF, which is a potent chemoattractant for leukocytes, is increased in ischemic retina and is necessary for retinal neovascularization to occur. Parstatin (1-41), hydrophobic parstatin (1-26) fragment and hydrophilic parstatin (24-41) fragment were used in an in vivo mice model of VEGF-induced retinal leukostasis.
C57BL/6J (4-5 week-old) mice were anesthetized with ketamine hydrochloride (100 mg/kg body weight) and xylazine (4 mg/Kg body weight) and the pupils were dilated with 1% tropicamide. Intravitreal injections of 1 μl solutions of 10 μM VEGF, which is the optimal concentration for promoting leukostasis, or parstatin (1-41) or parstatin (24-41) in phosphate buffered saline (PBS) or PBS alone or the combinations were administered. Also, intravitreal injections of 1 μl solutions of parstatin (1-26) in dimethyl sulphoxide (DMSO) or DMSO alone were administered to assess leukostasis. Six hours after intravitreal injections, which was the optimal time determined for VEGF-induced leukostasis, animals were perfused with PBS to remove intravascular content, including nonadherent leukocytes. Perfusion with FITC-conjugated Concanavalin A (40 μg/ml in PBS, Vector Labs, Burlingame, Calif.) was then performed to label adherent leukocytes and vascular endothelial cells, followed by removal of residual unbound lectin with PBS perfusion. Retinal flat mounts were prepared and examined with the Axioskop microscope and images were digitized. The total numbers of leukocytes adhering to the retinal vessels were counted at 200× by the same investigator, with the investigator being masked as to the nature of the specimen.

HUVEC cells [2] = experiment: Matrigel capillary tube-like formation; assay type: cell-based, human; settings: 5% FBS, 18 h; parstatin (1-41) 0.3 to 10 μM, other peptides 10 μM
Experimental: Primary human umbilical vein endothelial cells (HUVEC cells) were obtained from freshly delivered umbilical cords from caesarean births and were grown in M199 medium with 20% fetal bovine serum (FBS) supplemented with endothelial cell growth supplement and heparin. One of the most specific tests for angiogenesis is the measurement of the ability of endothelial cells to form capillary-like structures (i.e., tube formation). Tube formation is a multi-step process involving cell adhesion, migration and differentiation. Tube formation can be enhanced by use of Matrigel or fibrin clots to coat plastic culture dishes and it is an accepted model of angiogenesis.
Matrigel™ (Becton Dickinson Labware, N.J., USA) is a mixture of basement membrane components extracted from the Englebreth-Holm-Swarm tumor. […] Matrigel™ (250 μl) was added to each well of a 24-well plate and allowed to polymerize. A suspension of 40,000 HUVEC cells in M199 medium containing 5% FBS was added into each well coated with Matrigel™.
Cells were treated with increasing concentrations of human parstatin (1-41), scrambled parstatin, or parstatin (24-41) fragment. After 18 hours of incubation, the medium was removed, and the cells were fixed and stained, and tube-like structures were quantitated.

HUVEC cells [3] = experiment: flow-cytometric cell cycle analysis (propidium iodide); assay type: cell-based, human; settings: 10 μM, 24 h

## MGPRRLLLVAACFSLCGPLLSARTRARRPESKATNATLDPR (cysteines drawn unpaired) [parstatin (1-41)]
Isolated rat hearts; 1 μM
  coronary flow during and after ischemia: increased coronary flow
  decrease in infarct size: 65%
Isolated rat hearts; 1 μM for 15 min before ischemia, 30 min ischemia, 180 min reperfusion, of the area at risk
  infarct size: 18±3%
Isolated rat hearts; 1 μM, L-NMA 100 μM
  cardioprotective effect with L-NMA: abolished
Isolated rat hearts; 1 μM, ODQ 10 μM
  reduction in infarct size with ODQ: partially abolished
Isolated rat hearts; 1 μM, SB203580
  infarct sparing effects with p38 MAPK inhibition (SB203580): only partially blocked
Isolated rat hearts; 1 μM, glibenclamide 3 μM
  cardioprotective effect with glibenclamide: diminished
Isolated rat hearts; 10-fold higher or lower concentrations than 1 μM
  efficacy at other concentrations: lost its efficacy
[1]; 10 μg co-injected with VEGF
  reduction of firmly adhering leukocytes vs VEGF-treated controls: 28.7%
[1]; 10 μg co-injected with VEGF (10 μM), 6 h
  firmly adhering leukocytes: 129±14 cells/retina
[1]; without VEGF, 6 h
  leukocytes adhering to the retinal vessels, peptide alone: 8.5±1.6 cells/retina
HUVEC cells [2]
  tube formation on Matrigel: dose-dependent inhibition
HUVEC cells [3]
  cell fraction in G0/G1 phase: increased
  percentages of cells in S and G2/M phases: reduced
  subG0/G1 cell fraction (apoptotic cells): increased
